Laboratory results taken from paper doi:10.1101/377275.

Chains of the proteins cited; added tags and fusions are not shown.
UniProt Q9WVL2: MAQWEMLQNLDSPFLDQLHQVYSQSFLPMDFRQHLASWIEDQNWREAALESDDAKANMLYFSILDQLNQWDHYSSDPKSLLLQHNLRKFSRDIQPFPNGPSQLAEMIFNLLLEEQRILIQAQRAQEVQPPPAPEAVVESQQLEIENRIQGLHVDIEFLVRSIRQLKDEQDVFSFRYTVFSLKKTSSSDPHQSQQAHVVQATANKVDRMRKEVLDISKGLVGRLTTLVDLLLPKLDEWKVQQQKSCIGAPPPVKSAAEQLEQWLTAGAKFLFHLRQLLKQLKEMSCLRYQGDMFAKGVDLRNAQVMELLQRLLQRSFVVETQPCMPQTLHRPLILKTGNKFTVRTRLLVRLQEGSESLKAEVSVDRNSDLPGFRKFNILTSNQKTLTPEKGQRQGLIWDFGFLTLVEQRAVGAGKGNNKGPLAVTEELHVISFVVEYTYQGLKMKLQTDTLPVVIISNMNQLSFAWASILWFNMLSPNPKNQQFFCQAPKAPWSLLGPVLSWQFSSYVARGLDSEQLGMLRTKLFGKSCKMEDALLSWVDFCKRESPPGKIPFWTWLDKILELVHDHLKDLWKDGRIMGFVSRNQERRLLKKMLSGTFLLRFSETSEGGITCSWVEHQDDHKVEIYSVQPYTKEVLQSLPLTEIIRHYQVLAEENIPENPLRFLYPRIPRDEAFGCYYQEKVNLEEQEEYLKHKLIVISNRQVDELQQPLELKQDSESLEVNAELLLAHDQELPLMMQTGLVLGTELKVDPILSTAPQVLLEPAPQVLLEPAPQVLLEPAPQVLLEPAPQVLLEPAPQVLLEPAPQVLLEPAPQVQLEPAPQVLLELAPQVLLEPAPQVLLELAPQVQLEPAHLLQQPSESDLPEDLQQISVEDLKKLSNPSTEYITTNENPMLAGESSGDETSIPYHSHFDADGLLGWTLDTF
UniProt P60122: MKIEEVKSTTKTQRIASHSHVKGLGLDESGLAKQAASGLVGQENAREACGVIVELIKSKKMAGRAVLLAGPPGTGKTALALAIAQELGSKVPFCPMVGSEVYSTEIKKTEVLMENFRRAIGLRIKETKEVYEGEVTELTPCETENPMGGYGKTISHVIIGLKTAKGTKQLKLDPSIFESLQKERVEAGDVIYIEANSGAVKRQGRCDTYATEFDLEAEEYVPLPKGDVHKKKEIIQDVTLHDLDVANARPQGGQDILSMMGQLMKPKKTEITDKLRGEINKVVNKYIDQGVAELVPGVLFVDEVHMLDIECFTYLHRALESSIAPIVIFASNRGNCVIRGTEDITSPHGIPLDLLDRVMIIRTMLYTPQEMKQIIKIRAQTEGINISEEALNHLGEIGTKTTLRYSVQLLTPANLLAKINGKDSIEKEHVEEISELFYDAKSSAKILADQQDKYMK
UniProt Q8CHI8: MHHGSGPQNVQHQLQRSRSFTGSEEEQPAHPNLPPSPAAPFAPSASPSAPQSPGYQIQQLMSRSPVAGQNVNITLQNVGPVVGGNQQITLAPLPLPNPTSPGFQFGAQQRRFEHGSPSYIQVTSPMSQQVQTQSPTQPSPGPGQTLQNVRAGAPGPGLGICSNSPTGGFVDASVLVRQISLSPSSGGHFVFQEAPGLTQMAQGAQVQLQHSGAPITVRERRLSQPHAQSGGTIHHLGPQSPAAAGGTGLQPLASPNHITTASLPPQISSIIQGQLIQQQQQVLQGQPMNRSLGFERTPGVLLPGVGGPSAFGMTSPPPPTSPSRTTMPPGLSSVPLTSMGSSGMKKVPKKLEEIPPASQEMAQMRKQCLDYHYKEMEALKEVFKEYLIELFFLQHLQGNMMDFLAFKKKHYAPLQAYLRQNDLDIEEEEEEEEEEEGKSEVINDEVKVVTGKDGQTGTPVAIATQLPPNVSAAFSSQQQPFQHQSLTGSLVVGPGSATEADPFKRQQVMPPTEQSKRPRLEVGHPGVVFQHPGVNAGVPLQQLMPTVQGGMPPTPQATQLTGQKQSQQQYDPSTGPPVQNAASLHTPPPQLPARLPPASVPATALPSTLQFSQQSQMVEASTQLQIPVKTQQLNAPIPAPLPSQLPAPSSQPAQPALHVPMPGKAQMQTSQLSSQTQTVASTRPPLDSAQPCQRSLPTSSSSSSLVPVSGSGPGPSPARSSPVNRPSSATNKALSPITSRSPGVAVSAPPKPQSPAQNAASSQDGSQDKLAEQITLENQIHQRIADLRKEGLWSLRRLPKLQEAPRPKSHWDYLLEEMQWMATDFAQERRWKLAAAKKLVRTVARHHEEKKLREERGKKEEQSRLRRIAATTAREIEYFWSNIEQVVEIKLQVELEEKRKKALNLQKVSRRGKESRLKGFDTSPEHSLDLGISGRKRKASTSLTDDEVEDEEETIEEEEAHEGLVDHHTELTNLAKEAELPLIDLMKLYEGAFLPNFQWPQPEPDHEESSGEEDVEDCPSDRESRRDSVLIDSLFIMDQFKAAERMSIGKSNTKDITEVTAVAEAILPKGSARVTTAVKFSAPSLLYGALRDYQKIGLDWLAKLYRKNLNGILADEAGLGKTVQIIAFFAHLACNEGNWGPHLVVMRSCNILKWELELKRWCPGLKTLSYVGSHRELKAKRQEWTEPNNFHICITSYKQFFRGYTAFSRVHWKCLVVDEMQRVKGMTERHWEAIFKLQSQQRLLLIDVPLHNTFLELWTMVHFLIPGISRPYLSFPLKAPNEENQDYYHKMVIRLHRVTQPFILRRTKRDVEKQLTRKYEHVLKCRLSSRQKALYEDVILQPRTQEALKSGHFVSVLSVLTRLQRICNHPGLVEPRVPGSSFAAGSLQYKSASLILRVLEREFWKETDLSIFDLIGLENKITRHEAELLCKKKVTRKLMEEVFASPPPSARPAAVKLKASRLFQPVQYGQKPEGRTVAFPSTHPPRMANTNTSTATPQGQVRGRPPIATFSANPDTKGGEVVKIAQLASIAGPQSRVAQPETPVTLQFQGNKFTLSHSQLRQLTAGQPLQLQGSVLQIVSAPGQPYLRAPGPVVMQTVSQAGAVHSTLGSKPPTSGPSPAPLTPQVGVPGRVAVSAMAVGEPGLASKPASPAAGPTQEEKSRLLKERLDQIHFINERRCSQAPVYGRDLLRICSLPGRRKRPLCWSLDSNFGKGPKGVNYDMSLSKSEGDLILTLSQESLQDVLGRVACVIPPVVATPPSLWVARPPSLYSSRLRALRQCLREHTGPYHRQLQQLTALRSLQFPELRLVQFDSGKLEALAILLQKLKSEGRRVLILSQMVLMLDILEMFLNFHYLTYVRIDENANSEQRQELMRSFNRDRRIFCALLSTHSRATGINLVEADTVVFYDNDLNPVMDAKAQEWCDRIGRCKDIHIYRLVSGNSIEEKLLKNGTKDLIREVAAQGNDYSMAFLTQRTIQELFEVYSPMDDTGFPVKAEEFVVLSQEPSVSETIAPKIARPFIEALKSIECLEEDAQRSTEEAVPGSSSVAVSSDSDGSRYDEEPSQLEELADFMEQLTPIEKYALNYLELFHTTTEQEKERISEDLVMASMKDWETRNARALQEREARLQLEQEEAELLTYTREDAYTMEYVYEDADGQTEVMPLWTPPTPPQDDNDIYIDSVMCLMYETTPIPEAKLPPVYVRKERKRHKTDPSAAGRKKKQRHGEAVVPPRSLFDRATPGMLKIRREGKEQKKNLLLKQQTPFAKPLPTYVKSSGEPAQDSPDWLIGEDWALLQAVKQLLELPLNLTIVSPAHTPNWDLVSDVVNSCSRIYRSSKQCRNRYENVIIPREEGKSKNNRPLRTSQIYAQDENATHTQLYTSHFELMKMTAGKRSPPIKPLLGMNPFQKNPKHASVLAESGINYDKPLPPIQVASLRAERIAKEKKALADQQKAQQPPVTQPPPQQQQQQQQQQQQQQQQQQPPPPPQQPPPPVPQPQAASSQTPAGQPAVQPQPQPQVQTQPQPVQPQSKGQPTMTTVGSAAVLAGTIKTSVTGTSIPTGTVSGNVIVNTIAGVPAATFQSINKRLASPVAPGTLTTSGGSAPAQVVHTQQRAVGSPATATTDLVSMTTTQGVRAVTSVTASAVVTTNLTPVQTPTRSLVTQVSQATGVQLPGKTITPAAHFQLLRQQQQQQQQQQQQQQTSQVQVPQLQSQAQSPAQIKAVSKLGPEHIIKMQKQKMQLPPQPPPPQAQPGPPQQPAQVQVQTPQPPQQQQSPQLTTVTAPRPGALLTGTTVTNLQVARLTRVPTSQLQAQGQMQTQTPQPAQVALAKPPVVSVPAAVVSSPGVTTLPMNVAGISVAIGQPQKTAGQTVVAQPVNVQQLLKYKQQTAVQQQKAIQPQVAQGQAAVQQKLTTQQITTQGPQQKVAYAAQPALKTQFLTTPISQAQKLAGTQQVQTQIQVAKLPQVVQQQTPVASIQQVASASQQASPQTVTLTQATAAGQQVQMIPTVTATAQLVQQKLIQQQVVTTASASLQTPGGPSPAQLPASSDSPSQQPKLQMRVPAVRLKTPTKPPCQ
UniProt Q9WTM5: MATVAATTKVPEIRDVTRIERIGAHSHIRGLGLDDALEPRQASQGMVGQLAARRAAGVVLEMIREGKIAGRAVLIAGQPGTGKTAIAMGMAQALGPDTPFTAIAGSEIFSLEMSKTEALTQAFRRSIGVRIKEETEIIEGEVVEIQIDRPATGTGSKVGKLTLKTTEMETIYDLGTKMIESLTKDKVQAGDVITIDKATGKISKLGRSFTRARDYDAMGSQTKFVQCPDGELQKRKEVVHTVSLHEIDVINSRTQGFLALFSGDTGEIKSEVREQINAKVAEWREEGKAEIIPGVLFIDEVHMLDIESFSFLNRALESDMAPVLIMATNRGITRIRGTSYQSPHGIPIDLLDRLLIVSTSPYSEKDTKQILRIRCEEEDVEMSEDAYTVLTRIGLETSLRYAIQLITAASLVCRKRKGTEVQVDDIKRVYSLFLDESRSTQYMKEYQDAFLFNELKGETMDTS

How the values were obtained:
Assay in all cases: proximity labelling
[1] = target: myc-tagged STAT2-BirA* fusion protein (mouse) (UniProt Q9WVL2)
[2] = target: T1, myc-tagged IRF9-BirA* fusion protein (mouse) (UniProt Q61179)
T1 sequence: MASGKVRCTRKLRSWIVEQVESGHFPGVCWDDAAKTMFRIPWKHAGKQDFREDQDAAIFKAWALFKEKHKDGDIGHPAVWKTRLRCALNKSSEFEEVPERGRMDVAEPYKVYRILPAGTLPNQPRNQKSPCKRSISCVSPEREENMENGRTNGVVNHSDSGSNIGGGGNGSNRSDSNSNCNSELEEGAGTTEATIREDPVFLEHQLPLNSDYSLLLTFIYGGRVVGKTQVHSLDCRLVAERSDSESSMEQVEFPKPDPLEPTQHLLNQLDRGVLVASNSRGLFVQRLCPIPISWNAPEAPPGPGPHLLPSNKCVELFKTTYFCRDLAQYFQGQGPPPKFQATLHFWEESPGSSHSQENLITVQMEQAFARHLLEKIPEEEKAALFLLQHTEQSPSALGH

[3] = target: myc-tagged STAT2-BirA* fusion protein (mouse) (UniProt Q9WVL2); remark: listed apart in the source
[4] = target: myc-tagged STAT2-BirA* fusion protein (mouse) (UniProt Q9WVL2); remark: listed apart in the source
[5] = target: T2, myc-tagged IRF9-BirA* fusion protein (mouse), Q61179; details: remark: other sources report otherwise
T2 chain: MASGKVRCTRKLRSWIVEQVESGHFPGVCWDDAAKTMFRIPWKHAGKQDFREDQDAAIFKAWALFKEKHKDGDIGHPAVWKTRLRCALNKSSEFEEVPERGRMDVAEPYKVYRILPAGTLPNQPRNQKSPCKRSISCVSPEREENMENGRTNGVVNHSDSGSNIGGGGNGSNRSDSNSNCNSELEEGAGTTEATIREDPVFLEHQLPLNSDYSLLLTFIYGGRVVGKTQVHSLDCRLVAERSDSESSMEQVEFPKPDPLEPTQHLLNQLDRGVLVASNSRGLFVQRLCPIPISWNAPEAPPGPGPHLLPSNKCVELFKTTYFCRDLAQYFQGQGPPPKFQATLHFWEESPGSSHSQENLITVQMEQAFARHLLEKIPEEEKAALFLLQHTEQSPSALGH

[6] = target: T2, myc-tagged IRF9-BirA* fusion protein …; details: remark: other sources report otherwise

RVB1 (from UniProt P60122 1-456)
binding [1]: no binding

Ep400 (from UniProt Q8CHI8 1-3072)
binding [2]: binds
binding [1]: binds

RVB2 (from UniProt Q9WTM5 1-463)
binding [1]: no binding

B1: interferon regulatory factor 9 (IRF9) (protein, UniProt Q61179 1-399)
chain: MASGKVRCTRKLRSWIVEQVESGHFPGVCWDDAAKTMFRIPWKHAGKQDFREDQDAAIFKAWALFKEKHKDGDIGHPAVWKTRLRCALNKSSEFEEVPERGRMDVAEPYKVYRILPAGTLPNQPRNQKSPCKRSISCVSPEREENMENGRTNGVVNHSDSGSNIGGGGNGSNRSDSNSNCNSELEEGAGTTEATIREDPVFLEHQLPLNSDYSLLLTFIYGGRVVGKTQVHSLDCRLVAERSDSESSMEQVEFPKPDPLEPTQHLLNQLDRGVLVASNSRGLFVQRLCPIPISWNAPEAPPGPGPHLLPSNKCVELFKTTYFCRDLAQYFQGQGPPPKFQATLHFWEESPGSSHSQENLITVQMEQAFARHLLEKIPEEEKAALFLLQHTEQSPSALGH
binding [3]: binds
binding [4]: binds

B2: STAT1, P42225 1-749 (protein)
chain: MSQWFELQQLDSKFLEQVHQLYDDSFPMEIRQYLAQWLEKQDWEHAAYDVSFATIRFHDLLSQLDDQYSRFSLENNFLLQHNIRKSKRNLQDNFQEDPVQMSMIIYNCLKEERKILENAQRFNQAQEGNIQNTVMLDKQKELDSKVRNVKDQVMCIEQEIKTLEELQDEYDFKCKTSQNREGEANGVAKSDQKQEQLLLHKMFLMLDNKRKEIIHKIRELLNSIELTQNTLINDELVEWKRRQQSACIGGPPNACLDQLQTWFTIVAETLQQIRQQLKKLEELEQKFTYEPDPITKNKQVLSDRTFLLFQQLIQSSFVVERQPCMPTHPQRPLVLKTGVQFTVKSRLLVKLQESNLLTKVKCHFDKDVNEKNTVKGFRKFNILGTHTKVMNMEESTNGSLAAELRHLQLKEQKNAGNRTNEGPLIVTEELHSLSFETQLCQPGLVIDLETTSLPVVVISNVSQLPSGWASILWYNMLVTEPRNLSFFLNPPCAWWSQLSEVLSWQFSSVTKRGLNADQLSMLGEKLLGPNAGPDGLIPWTRFCKENINDKNFSFWPWIDTILELIKNDLLCLWNDGCIMGFISKERERALLKDQQPGTFLLRFSESSREGAITFTWVERSQNGGEPDFHAVEPYTKKELSAVTFPDIIRNYKVMAAENIPENPLKYLYPNIDKDHAFGKYYSRPKEAPEPMELDDPKRTGYIKTELISVSEVHPSRLQTTDNLLPMSPEEFDEMSRIVGPEFDSMMSTV
binding [5]: no binding
binding [6]: no binding

Read-outs that look alike come from different tables or passages of the source. No constants are given. Whether binding was seen depends on the method and setting. Binding seen in cells or lysates may run through a third protein. A yes stands for co-enrichment or nearness to the bait. Other partners may have been found. For some assays here: A no says only that the protein was not detected with the bait. For some assays here: Tags and fused reporters may be left off the sequences shown.
